Test results from article PMC12370185.
Some of the results follow.

test system: SOX2 + histone octamer; test: EMSA with sequencing; settings: 10 mM Tris-Cl pH 7.5, 50 mM NaCl, 1 mM DTT, 0.25 mg/ml BSA, 2 mM MgCl2, 0.025% Nonidet P-40, 5% glycerol; 28 nM nucleosome library; 10 min on ice then 30 min …; high values mean tight binding; double strand, one strand shown

Row | Sequence | binding signal (log2 relative supershift)
1 | GATGGACCCTATACGCGGCAAAATCTGGGTGTGGAAGAACTGTTGAACAATAGGTTAGCTCTATGTTCTACAACAGACTGTCTCTCAAATGCAGAGTTCTGTGTGTTTATTGACTACTAGCGTCAGCTTCTGTGCAGCTGAGATACAAATTCAGCCCTAGGCTTTTATCCACAGATCTGAGAGGAGGAAGGCAGGCAGGCACCTGTAATTTGCCAGTCGGATAGTGTTCC | 1.21
2 | GATGGACCCTATACGCGGCGAAGACAGGGAAGAGAGGAGGGAGAGAAGGGTGACAGGGAGCTGGTTGAGGGAGGGGACACAGAGCAGGAGACAGAGGCCCCATGTGGATCAAAGGAGTGACAAGGGAGGGCCCATGCTCAGTGATATGAGAACAGCAAGAGGCAACAAACAAGATACAAAAGGATACACACTTCCATCCCATTCATGTACTGCCAGTCGGATAGTGTTCC | 1.76
3 | GATGGACCCTATACGCGGCTTGCAGTCATTCTGTCATGTCACCCACTGAGGAGACTGCACACAAACTGCTTGAGGACAGGAGCTGTGTTATGCACACCTTTTGTCACTCATGACAGCCTGTTAACACACTGCCAGACACATAGCCAGTGCTCAATTACACGGCTGAGTAGGACAGACCACACAGTTATTACCCCCTTTGAGCACACCATTTGCCAGTCGGATAGTGTTCC | 0.085
4 | GATGGACCCTATACGCGGCCTCCAACAGAAATCTCCACTCACAGGTGTCACAGCCCAAAGCTGTCTTTGTAATGGTGACCTCACCCTGGTATCACAGTGACTGTAAGGGAAAGAAAGCAGCTGCCACTTCCTGGTTCACTTTCAACACCAAGCTCTCCTGATTTTATGTGTTCATTCTTATTACTTTCTTTCCCTCTCACCCTACCATATTGCCAGTCGGATAGTGTTCC | 0.797
5 | GATGGACCCTATACGCGGCTTTGGATATTTTAAAACAAATCCAGGAAGAGAGCAATGTACAACACAAAGGGATGAATCACAAATGGCAGAATTTCAGACATGAGTCAGAGATATTTTGGGTGTAGACCTGCCCTGTGTCCTATAACCCTACCACCTACTCACCTCACATTTCTCATATGAACTGATTGTTCTCTTGTTCCCTTTTTTTGTTGCCAGTCGGATAGTGTTCC | 2.13
6 | GATGGACCCTATACGCGGCTCAGAACCAGATGCACAAAGAACAAACAAGTTTCCCAGCAGGACTCAAAATAGAAGGGATGGTGACTGCATGCCTTACCATTCGGGATCCTCTTCTTCCCGGAGAACTCCGCGCAGGCAGGTCTGTACCTGCTTAGAGGCAGCCTGTCTGTTGAGCAGCCCATCCTCAGTGAGGGACGATAAGAGACTGGGTGCCAGTCGGATAGTGTTCC | 1.31
7 | GATGGACCCTATACGCGGCCATGTTGAATGGGTGAACTGTATGGTATGTCATTATATTTCAAGAAGCCATTAAAAAAAAACAACAGAAAGCCTTGCTGCAACATGCCTGCACTTGCTCCTGCCACATTCAGGTGGTTCTGAGCTGAAGCCACAGACAGGTCTCCCTGGGTTAGAGGTGTTCCCTGCTGGTCAGATCATTTATGATTGGAATGCCAGTCGGATAGTGTTCC | 0.903
8 | GATGGACCCTATACGCGGCATGAACATTCATTCGGGTGGCTGTCTTTGGGTGAACACATGGATGCATTTCTGGTGGGGGTGGAGTTGCCCGGTCATAAGGTATGTGCATGTTCACCTTGAGTAGATACTGCATAGCAGCGCAGTCCACCCAAAGCGGGTAGACAAATTTGCAATGCCATTGGCAGTGTGATGGGAGACACAGAAAGAGAGTGCCAGTCGGATAGTGTTCC | 0.701
9 | GATGGACCCTATACGCGGCAACGTGAGGCAGGATGTTCATTTTCCTCTAGTAGCAGGTTCTGAGATAGTCTGTGTGTGATGTGCATGTGAATGAGTGGATGTGAGTGAGAATAGCAGGAGTGAGGGTAGGTTGCAGTTTTGATTACACGGGTGTAGACTGATTCTCTGAGGTCAGCTTTATGCACTGGGTTTTAACTTTGTGGAACCATATGCCAGTCGGATAGTGTTCC | 0.331
10 | GATGGACCCTATACGCGGCTGCCTTTTTGAGAAGTAGACATATGTACTGGAGGCAACCTAGCTTGGTGTGATGAGCAACAGATTGGAACACAGAGCAGCACTAGGTGTACAGTGTCAGGAAGTCCAACTCAGTGGGTGTTTGTTATGCACAAGGAACTTTGACAGGCATTATTGTGGGAGAGGGTGGTTGAGGTGGATATAAGCATGAATTGCCAGTCGGATAGTGTTCC | 0.553
11 | GATGGACCCTATACGCGGCTTCTGTCCTTGTTCCTCGTCCCATCTGGAGCATTTCCAATTCTGGTTTTGCGGAGCAGCAGGTCTGAGCTTGTCCGGCGAGGGTGGGAGTTGGTCCCGGCGGAGATCCAGTGGGAAGAGCCGGCGGCTGCCCGGGCGTGAGTAGACCGAGAATCCTGCCCGATCCCCGCCCCTGGGCTGGTGTCGCCCTGGTGCCAGTCGGATAGTGTTCC | 0.474
12 | GATGGACCCTATACGCGGCCAGGGTGAAAAGACTGGCCAGACATTTTCTGGAAAGAGGCAGGCTAAGCAGGAGCTTGGTAAACAAAAGCAGGAAATGGAGCGTTCAGAACATCCACAGACGTGTTCAGACATGCAGGCCCCTGCCGGGCTGCAGAGAGTATGACAATTCGGGCTTGTGTGGTGTGGAGGTACCCAATGGGATGGGACCCCTGCCAGTCGGATAGTGTTCC | 0.995
13 | GATGGACCCTATACGCGGCTCTAACAACAATTTATATGTGTATGTGCCAAGATAGGGGGGTGGGTTTCCTGAGGGCTGGAGACAGGACAGGTATGACCATGCACAGCCGCATTCTTTGGCAGAGAACACACATGATTCCCCCAAATATGTTTCTGGAAACGGAATTGAGTCTGTTCTGTGCTGAGATCTTTGACTTTCTTGAGGACAAAATGCCAGTCGGATAGTGTTCC | 0.665
14 | GATGGACCCTATACGCGGCCCCTCTTCTTCCAGTTCTTTGTTTCTCTAGTTTCTATAGTTACCCGTGCTGTAAACAACCCTTCCTGCCCTGACTGTTCCCTGACATGTCCTGACAAGTCTAGACAGGCCTTGCACCATAATGGATAGCCTTCCCCTTCCTGCCTAGATAGCTGTATTCAATTTCAAACATTAGCCAATCAGGTCAGTTTATGCCAGTCGGATAGTGTTCC | 1.35
15 | GATGGACCCTATACGCGGCGAGTGACTTAAGAATGTCAGAGAATAGCAAGGGAGTGGCAGAAACCCTGTGAAGCACAGGCTAAGTATGGCCATATACAGAAGGGTGGAGTCATTGTTGTGCTATTCCCTTCCCCAATGCCTAAGTCACAGCTGTGCCCCACCATTCATGGGCCCTTGTTGCTGCTGTACCCAGCCTCACAAAGTCTGGTCTGCCAGTCGGATAGTGTTCC | 0.631

Some of the entries above, reformatted:
Row	Sequence	binding signal (log2 relative supershift)
9	GATGGACCCTATACGCGGCAACGTGAGGCAGGATGTTCATTTTCCTCTAGTAGCAGGTTCTGAGATAGTCTGTGTGTGATGTGCATGTGAATGAGTGGATGTGAGTGAGAATAGCAGGAGTGAGGGTAGGTTGCAGTTTTGATTACACGGGTGTAGACTGATTCTCTGAGGTCAGCTTTATGCACTGGGTTTTAACTTTGTGGAACCATATGCCAGTCGGATAGTGTTCC	0.331
10	GATGGACCCTATACGCGGCTGCCTTTTTGAGAAGTAGACATATGTACTGGAGGCAACCTAGCTTGGTGTGATGAGCAACAGATTGGAACACAGAGCAGCACTAGGTGTACAGTGTCAGGAAGTCCAACTCAGTGGGTGTTTGTTATGCACAAGGAACTTTGACAGGCATTATTGTGGGAGAGGGTGGTTGAGGTGGATATAAGCATGAATTGCCAGTCGGATAGTGTTCC	0.553
